Library screen at single concentrations

Amino acid sequences for entries named in this document (tags omitted). Residues count along the entry.
UniProt P9WPC5, whole entry: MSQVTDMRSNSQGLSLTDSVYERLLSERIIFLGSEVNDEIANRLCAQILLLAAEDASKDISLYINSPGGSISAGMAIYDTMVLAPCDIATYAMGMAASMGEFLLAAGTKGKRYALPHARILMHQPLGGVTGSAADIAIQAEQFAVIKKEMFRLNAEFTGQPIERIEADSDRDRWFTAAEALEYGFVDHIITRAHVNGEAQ
UniProt P9WPC3, whole entry partner: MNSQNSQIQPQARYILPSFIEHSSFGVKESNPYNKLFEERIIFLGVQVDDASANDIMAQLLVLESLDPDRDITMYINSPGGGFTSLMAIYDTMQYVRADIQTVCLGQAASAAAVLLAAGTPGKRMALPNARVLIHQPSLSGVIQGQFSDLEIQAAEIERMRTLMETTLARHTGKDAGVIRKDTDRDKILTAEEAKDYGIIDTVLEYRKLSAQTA
UniProt A4I591, 1-473: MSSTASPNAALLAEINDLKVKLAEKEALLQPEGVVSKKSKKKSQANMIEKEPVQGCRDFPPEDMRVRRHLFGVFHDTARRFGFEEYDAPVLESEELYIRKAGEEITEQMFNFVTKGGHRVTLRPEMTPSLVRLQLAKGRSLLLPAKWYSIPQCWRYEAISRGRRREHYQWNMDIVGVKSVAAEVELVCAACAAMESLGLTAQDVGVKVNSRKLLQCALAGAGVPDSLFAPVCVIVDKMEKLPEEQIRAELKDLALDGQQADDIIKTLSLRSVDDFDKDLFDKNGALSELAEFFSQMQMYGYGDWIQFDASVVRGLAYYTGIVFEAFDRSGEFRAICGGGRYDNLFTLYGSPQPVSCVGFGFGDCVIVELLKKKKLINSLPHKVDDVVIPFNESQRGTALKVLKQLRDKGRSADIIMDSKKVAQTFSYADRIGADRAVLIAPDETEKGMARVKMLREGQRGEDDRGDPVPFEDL

The values are deposited in ChEMBL (CHEMBL3988442, “University of Dundee, Small-Polar-MMV Screening Library” (2021)).

A: 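ClpP1P2, Mycobacterium tuberculosis (UniProt P9WPC5 and UniProt P9WPC3). Protease assay of ClpP1P2, read by the AMC dye that it sets free. Concentration: 50 µM. Higher reads as stronger inhibition, judged from the few compounds that gave an IC50. Most other retested compounds had strongly negative values. Size under these conditions: about 69,000 compounds, about 10 of them at 50% or above in at least one test.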
B: 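Histidine-tRNA ligase, Leishmania infantum (UniProt A4I591). Enzyme assay of histidyl-tRNA synthetase; the read-out is not stated. Tested at 30 µM. The record gives no direction; compounds that gave an IC50 in retests scored well above the rest, so higher reads as stronger inhibition. The assay is labelled LdHisRS but filed under L. infantum. About 69,000 compounds were tested under these conditions; 0.6% (about 410) showed 50% or more at least once.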

The filed quantity is “Percent Effect” (%).
How 0% and 100% were set is not recorded. Most values in the screen are low, and negative values occur.
Compounds were drawn at random from those tested, without regard to their results.

| # | Compound | A | B |
|---|---|---|---|
| 1 | `CCCS(=O)(=O)N1CCN(c2cc(-n3ccnc3)nc(C)n2)CC1` | -17.33 | 9.677 |
| 2 | `Cc1nc2c(C#N)cnn2c(C)c1CCC(=O)N(C)C1CC1` | -3.722 | 19.78 |
| 3 | `CC(C)c1nc(CNC2CCN(S(C)(=O)=O)CC2)cs1` | 15.2 | 24.49 |
| 4 | `Cc1n[nH]c(SCC(=O)N2C[C@H]3CC[C@@H]2CN(c2ncccn2)C3)n1` | -3.044 | 9.375 |
| 5 | `O=C(Nc1ccccc1)N1C(CO)[C@]2(O)CC[C@H]1CC2` (stereo partly specified) | 7.831 | -6.122 |
| 6 | `CCOc1ccccc1OC1CCN(C(=O)c2cnsn2)CC1` | -18.56 | 9.091 |
| 7 | `COc1ccc(-c2noc(C(=O)NCCN3CCCCC3)n2)cc1OC` | -1.063 | 9.709 |
| 8 | `COCC(O)CN1CCC(NC(=O)c2ccccc2Cl)CC1` (stereo unspecified) | 7.951 | -1.408 |
| 9 | `COc1cccc(CN2CCN(c3noc(C(C)C)n3)CC2)c1F` | -7.233 | 26.76 |
| 10 | `CCc1csc(C2CCCN(C(=O)c3cc(Cl)c[nH]3)C2)n1` (stereo unspecified) | -10.68 | -9.649 |
| 11 | `CC(C)n1cc(N2CC(C(=O)N3CCCC3)CC2=O)cn1` (stereo unspecified) | 16.61 | 14.94 |
| 12 | `CNC(=O)Cn1cc(C#N)c(=O)c2cc(Br)ccc21` | -8.499 | 22.33 |
| 13 | `Cc1ccc(S(=O)(=O)N2CCC(S(=O)(=O)c3nncn3C)CC2)cc1C` | -6.707 | 2.564 |
| 14 | `COCCC(=O)N1CC[C@@H](N2CCOCC2)[C@@H]1Cc1ccccc1` | 11.7 | 12.73 |
| 15 | `Cc1ncc(C(=O)N2CCCC(Cc3nccs3)C2)cn1` (stereo unspecified) | 10.61 | 8.571 |
| 16 | `Cc1ncc2c(n1)CN(Cc1nc3c(F)cccc3[nH]1)CC2` | -1.032 | 39.39 |
| 17 | `Cc1cc(C)c(CNC(=O)C2CCCN(c3cnccn3)C2)c(=O)[nH]1` (stereo unspecified) | 10.62 | -2.4 |
| 18 | `CCOc1ccc(NC(=O)N2CCC(n3cncn3)CC2)cc1Cl` | -7.11 | 16.46 |
| 19 | `CC(CNC(=O)c1nc(N2CCOCC2)ncc1Cl)c1ccccc1` (stereo unspecified) | 4.686 | 4.167 |
| 20 | `CN(C(=O)c1ccncc1)c1ccccc1S(C)(=O)=O` | 0.5174 | 5.333 |
| 21 | `O=C(C1CCOCC1)N1C[C@@H](F)[C@@H](OCc2nc3cc(F)ccc3[nH]2)C1` | -2.705 | 14.86 |
| 22 | `COCCNC(=O)NC1(c2ccccc2F)CC1` | -4.848 | 18.37 |
| 23 | `CC1=C(CCN2CCCC(O)C2)C(C)(C)CCC1` (stereo unspecified) | -5.942 | 2.083 |
| 24 | `CN(C)CCN1CCO[C@H]2CCN(C(=O)c3cccs3)CC[C@@H]21` | 6.916 | 15.38 |
| 25 | `CN(C)C(=O)Cc1nc(CN2CCCC2Cn2cccn2)cs1` (stereo unspecified) | -26.32 | 8 |
| 26 | `O=C(c1cccnc1)N1CCC2(CC1)COC(COc1ccccn1)C2` (stereo unspecified) | 13.26 | 14.55 |
| 27 | `Cn1cc(CN2CCCC23CCN(C(=O)c2ccccn2)CC3)cn1` | 2.329 | -43.64 |
| 28 | `CC(=O)N1CCC(Oc2ccc(C#N)cn2)CC1` | -9.619 | 9.615 |
| 29 | `O=C(NCCc1cccs1)NCC(O)c1cccc(F)c1` (stereo unspecified) | -2.303 | 14.04 |
| 30 | `Cc1cnc(N2CCC(OCCN3CCCCC3)C2)nc1C` (stereo unspecified) | -5.414 | 20.51 |
| 31 | `Cc1ocnc1C(=O)N1CCCN(Cc2cscn2)CC1` | -43.32 | 15.04 |
| 32 | `CCC(C)c1noc(C2CCN(C(=O)c3cccs3)CC2)n1` (stereo unspecified) | -10.41 | 8.491 |
| 33 | `COc1ccccc1Nc1nc2c(s1)C(=O)CN(C(=O)CC(C)C)C2` | -1.266 | 20 |
| 34 | `COCCN1CC(=O)N2CC[C@@H](O)C[C@H]2C1=O` | 19.78 | 17.65 |
| 35 | `CC(C)OC(=O)N1CCC(Cc2cccc(C(N)=O)c2)C1` (stereo unspecified) | 11.58 | 10.4 |
| 36 | `CC(C)(NCCCOc1ccc(C#N)cc1)c1nccs1` | -9.253 | 1.333 |
| 37 | `CN(C)C(C)(C)CNCc1cn(C)nc1-c1cccnc1` | -6.597 | 32.88 |
| 38 | `Cc1cnc(NC(=O)c2cccc(CN(C)Cc3ncccc3C)c2)s1` | -6.367 | -5.714 |
| 39 | `c1cncc(COCc2n[nH]c3c2CN(Cc2ccco2)C3)c1` | 6.298 | 7.692 |
| 40 | `COc1ccc(C(=O)C2CCCN(Cc3cnn(C)c3C)C2)c(OC)c1` (stereo unspecified) | -11.21 | 10.39 |
| 41 | `Cc1ccccc1-c1noc(CN2CCC(c3ccn[nH]3)CC2)n1` | -10.07 | 0 |
| 42 | `Cc1cccc(COC[C@H]2CC[C@H]3[C@H](CCN3Cc3ccco3)O2)n1` | -12.31 | 1.064 |
| 43 | `Cc1noc(-c2ccnc(Oc3cccc(CN4CCCC4)c3F)c2)n1` | -2.757 | 16.39 |
| 44 | `CNC(=O)CCNC(=O)c1cc(Br)c2c(c1)OCCO2` | -1.658 | 17.74 |
| 45 | `CCc1nnc2n1CCN(C(C(N)=O)c1ccc(F)cc1)C2` (stereo unspecified) | 7.449 | 19.1 |
| 46 | `O=C(Cn1ccc(=O)cc1)N1C[C@H]2CC[C@@H]1CN(c1ncccn1)C2` | 0.9945 | 7.292 |
| 47 | `O=c1cccnn1CC1CN(CC2CCCC2)Cc2nccn2C1` (stereo unspecified) | -20.44 | 16.67 |

4 of the entries, repeated:

Compound	A	B
CC(=O)N1CCC(Oc2ccc(C#N)cn2)CC1	-9.619	9.615
CNC(=O)Cn1cc(C#N)c(=O)c2cc(Br)ccc21	-8.499	22.33
O=c1cccnn1CC1CN(CC2CCCC2)Cc2nccn2C1 (stereo unspecified)	-20.44	16.67
COCC(O)CN1CCC(NC(=O)c2ccccc2Cl)CC1 (stereo unspecified)	7.951	-1.408